Consider one molecule from paper PMC3717291.

Amino acid sequences for entries named in this document (tags omitted).
UniProt P05549: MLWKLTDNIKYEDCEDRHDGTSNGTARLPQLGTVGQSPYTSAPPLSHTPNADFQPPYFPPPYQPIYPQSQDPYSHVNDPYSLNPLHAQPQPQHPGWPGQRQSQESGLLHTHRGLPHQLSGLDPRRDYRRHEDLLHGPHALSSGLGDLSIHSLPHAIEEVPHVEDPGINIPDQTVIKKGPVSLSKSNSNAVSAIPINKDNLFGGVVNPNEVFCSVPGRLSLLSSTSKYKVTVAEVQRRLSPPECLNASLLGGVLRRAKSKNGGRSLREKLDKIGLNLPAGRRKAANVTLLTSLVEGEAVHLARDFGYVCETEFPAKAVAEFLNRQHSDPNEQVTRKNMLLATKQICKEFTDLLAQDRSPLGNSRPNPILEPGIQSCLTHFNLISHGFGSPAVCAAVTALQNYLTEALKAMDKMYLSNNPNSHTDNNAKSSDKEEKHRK

This assay deals with activator protein 2α (human (endogenous in hESC)) (UniProt P05549). The assay can be described thus: co-IP; 600 μg of hESC proteins immunoprecipitated with anti-rabbit IgG or anti-AP2α at 4°C for 12 h; washed precipitates detected by western blotting. In general terms: A western blot detects proteins with antibodies after separation by electrophoresis.

No constants are given. Whether binding was seen depends on the method and setting. Binding seen in cells or lysates may run through a third protein. Some results given as binding are weak or reduced against the parent protein; the word gives no strength.

B1: calcium-activated neutral protease 7 (enzyme, UniProt Q9Y6W3 1-813)
chain: MDATALERDAVQFARLAVQRDHEGRYSEAVFYYKEAAQALIYAEMAGSSLENIQEKITEYLERVQALHSAVQSKSADPLKSKHQLDLERAHFLVTQAFDEDEKENVEDAIELYTEAVDLCLKTSYETADKVLQNKLKQLARQALDRAEALSEPLTKPVGKISSTSVKPKPPPVRAHFPLGANPFLERPQSFISPQSCDAQGQRYTAEEIEVLRTTSKINGIEYVPFMNVDLRERFAYPMPFCDRWGKLPLSPKQKTTFSKWVRPEDLTNNPTMIYTVSSFSIKQTIVSDCSFVASLAISAAYERRFNKKLITGIIYPQNKDGEPEYNPCGKYMVKLHLNGVPRKVIIDDQLPVDHKGELLCSYSNNKSELWVSLIEKAYMKVMGGYDFPGSNSNIDLHALTGWIPERIAMHSDSQTFSKDNSFRMLYQRFHKGDVLITASTGMMTEAEGEKWGLVPTHAYAVLDIREFKGLRFIQLKNPWSHLRWKGRYSENDVKNWTPELQKYLNFDPRTAQKIDNGIFWISWDDLCQYYDVIYLSWNPGLFKESTCIHSTWDAKQGPVKDAYSLANNPQYKLEVQCPQGGAAVWVLLSRHITDKDDFANNREFITMVVYKTDGKKVYYPADPPPYIDGIRINSPHYLTKIKLTTPGTHTFTLVVSQYEKQNTIHYTVRVYSACSFTFSKIPSPYTLSKRINGKWSGQSAGGCGNFQETHKNNPIYQFHIEKTGPLLIELRGPRQYSVGFEVVTVSTLGDPGPHGFLRKSSGDYRCGFCYLELENIPSGIFNIIPSTFLPKQEGPFFLDFNSIIPIKITQLQ
With B1, the binding result is on record as “binds”.
